About 22,000 (6.9%) of roughly 320,000 compounds were called active. The shares of active, inactive and inconclusive entries below differ from those in the screen. The call rests on the fitted dose curve; in most records, active means well fitted inhibition curve with a large enough effect; inconclusive means small, poorly fitted or top-dose-only effect, or another doubt; inactive means no such curve, though single readings can be large or run the other way. A potency beside an inconclusive call is a rough fit, not a confirmed value.
Experiment: Primary qHTS for delayed death inhibitors of the malarial parasite plastid, 96 hour incubation
Conditions: P. falciparum luciferase reporter growth; series mostly up to 28.7 µM; activity change, negative = inhibition: at the top concentration
How it was run: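 P. falciparum expressing integrated firefly luciferase, in erythrocytes at 2% hematocrit, 0.05% parasitemia, incubated with compounds 96 h at 37 C, 5% CO2. Growth inhibition read as loss of luminescence; two-generation exposure targets delayed-death apicoplast inhibitors.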
On the % scale 0 is the no-effect control and ±100 the full control effect; potency means the concentration at half of the fitted maximal effect.

SMILES | activity change, negative = inhibition | Potency
COc1ccccc1NC(=O)CSC(N)=O | inactive: -13.3% | –
COc1ccc(C(C(=O)NC(C)(C)C)N(C(=O)CCC(=O)Nc2cc(C)on2)c2cccc(C)c2C)cc1 (stereo unspecified) | – | inconclusive: 5.22 µM [inhibitor, partial curve, poor fit]
COc1ccc(C(C(=O)NC2CCCCC2)N(C(=O)Cc2c[nH]c3ccccc23)c2ccccc2)cc1OC (stereo unspecified) | – | inconclusive: 4.65 µM [inhibitor, partial curve, poor fit]
CSc1cnn(-c2ccccc2)c(=O)c1SC | – | inconclusive: 0.828 µM [inhibitor, full curve, poor fit]
CCOc1ncccc1C(=O)OCC(=O)Nc1ccc(C)c(S(=O)(=O)N2CCOCC2)c1 | inactive: -11.4% | –
O=S(=O)(c1ccccc1)c1cnc(-c2cccnc2)nc1-c1ccc(Cl)cc1Cl | – | inconclusive: 18.5 µM [inhibitor, single point]
COc1cc(NC(=O)[C@@H](NC(=O)c2ccco2)C(C)C)c(OC)cc1NC(=O)c1ccccc1 | – | inconclusive: 10.4 µM [inhibitor, single point]
CC(Oc1ccc(Br)cc1)C(=O)Nc1nnc(C2CC2)s1 (stereo unspecified) | inactive: 1.25% | –
COc1cc(C(=O)NCCSc2ccccc2)cc(OC)c1OC | – | active: 10.4 µM
S=C(NCCSCc1ccc(Cl)cc1Cl)Nc1ccccc1 | – | inconclusive: 9.28 µM [inhibitor, partial curve, poor fit]
Cc1ccc(C)c(S(=O)(=O)N2CCCOC2CNC(=O)C(=O)NCc2ccc3c(c2)OCO3)c1 (stereo unspecified) | – | inconclusive: 10.4 µM [inhibitor, partial curve, poor fit]
Cc1ccc(OCc2ccc(C(=O)O)o2)cc1C | – | inconclusive: 13.1 µM [inhibitor, partial curve]
CC(=O)N1CCc2cc(S(=O)(=O)NC(Cc3ccccc3)C(=O)O)ccc21 (stereo unspecified) | – | active: 16.5 µM
CCC1CCc2sc(C(=O)NC3CCN(Cc4ccccc4)CC3)cc2C1 (stereo unspecified) | – | inconclusive: 14.7 µM [inhibitor, partial curve]
CCOc1ccc(/C(O)=C2/C(=O)C(=O)N(CCOCCO)C2c2ccc(F)cc2)cc1 (stereo unspecified) | inactive: 73.9% | –
Cc1ccc(-c2csc(NNC(=O)c3ccccc3)n2)cc1 | – | active: 3.7 µM
CCN(CC)S(=O)(=O)c1ccc2c(c1)nc(SC(C)C(=O)NCC1CCCO1)n2CC (stereo unspecified) | – | inconclusive: 9.28 µM [inhibitor, partial curve]
CC(C)c1nnc(NC(=O)COc2ccccc2[N+](=O)[O-])s1 | inactive: 106% | –
O=C(Nc1cccc(NC(=O)c2cccc(F)c2)n1)c1cccc(F)c1 | – | inconclusive: 9.28 µM [inhibitor, single point]
COc1ccc(CN(C)C(=O)C2CCN(S(=O)(=O)c3cccs3)CC2)cc1F | – | inconclusive: 18.5 µM [inhibitor, single point]
CCOc1ncccc1C(=O)OCC(=O)Nc1ccc(-c2nc3ccc(C)cc3s2)cc1 | inactive: 57.5% | –
Cc1ccc(Cn2cccc2C2=NC(C)CO2)cc1 (stereo unspecified) | – | inconclusive: 18.5 µM [inhibitor, single point]
CC/C=C(\NC(C)=O)c1ccccc1 | inactive: -9.39% | –
CCOc1ccc(N(CC(=O)NCc2cccs2)S(=O)(=O)c2c(C)noc2C)cc1 | – | inconclusive: 10.4 µM [inhibitor, partial curve, poor fit]

SMILES | activity change, negative = inhibition | Potency
O=C(COc1ccc(Nc2ccccc2)cc1)OCC(=O)N1CCCCC1 | inactive: 36.4% | –
Cc1ccc(/C=C2\C(=N)N3N=C(CC(=O)N4CCOCC4)SC3=NC2=O)o1 | – | inconclusive: 18.5 µM [inhibitor, single point]
Cc1nc(NC(=O)CSc2nnc(-c3ccncc3)n2C)sc1C | – | inconclusive: 0.0657 µM [inhibitor, full curve, poor fit]
COc1ccc(N2CCN(C(=O)CN3C(=O)NC(C)(c4ccc5ccccc5c4)C3=O)CC2)cc1 (stereo unspecified) | – | inconclusive: 10.4 µM [inhibitor, single point]
CN(Cc1ccccc1)S(=O)(=O)c1csc(C(N)=O)c1 | inactive: -10.7% | –
Cc1cc(-c2ccccc2)nc(N/N=C/c2ccco2)n1 | inactive: -0.988% | –
O=C(O)c1ccc2nc(C(F)(F)F)[nH]c2c1 | – | inconclusive: 2.33 µM [inhibitor, partial curve, poor fit]
O=C(COC(=O)c1ccc2ccccc2n1)c1ccccc1 | inactive: -10.4% | –
COc1cccc(CNCc2ccco2)c1O | – | active: 11.7 µM
CCCCC(CC)C(=O)Nc1cc(C(=O)NCCC)ccc1N1CCC2(CC1)CC(c1ccccc1)=NO2 (stereo unspecified) | – | active: 1.47 µM
COc1ccc(C2N3CC4(C)CN2CC(C)(C3)C4O)cc1 (stereo unspecified) | – | inconclusive: 9.28 µM [inhibitor, partial curve, poor fit]
Cc1cc(C)n(C(=O)c2cc3ccccc3c(=O)o2)n1 | inactive: -23.5% | –
Cc1cc(O)c(-c2n[nH]c3c2C(c2cccc(O)c2)N(Cc2cccnc2)C3=O)cc1Cl (stereo unspecified) | inactive: -7.02% | –
CCN(CC)S(=O)(=O)c1ccc(N2CCOCC2)c(NC(=O)CN2C(=O)NC(C)(c3ccccc3)C2=O)c1 (stereo unspecified) | – | inconclusive: 11.7 µM [inhibitor, partial curve, poor fit]
COc1cc(OC)cc(C(C(=O)NC2CCCCC2)N(C(=O)c2ccno2)c2ccccc2)c1 (stereo unspecified) | inactive: -11.4% | –
CC(=O)N(CCC1(C(C)C)CCOC(C)(C)C1)Cc1ccco1 (stereo unspecified) | inactive: -27.3% | –
COc1cccc(NC(=O)N2CCCCCC2)c1 | inactive: 27.2% | –
COc1ccc(-n2nnnc2SCC(=O)N2CCCC2)cc1OC | – | inconclusive: 10.4 µM [inhibitor, single point]
C=CCNC(=O)c1onc(CSc2ccc(Cl)cc2)c1C(=O)O | inactive: 15% | –
Cc1cccc(NC(=O)c2snc3c(=O)[nH]cnc23)c1 | – | active: 6.57 µM
O=C(NC(c1ccccc1)c1c(O)ccc2ccccc12)c1ccccc1Cl (stereo unspecified) | – | inconclusive: 20.8 µM [inhibitor, partial curve, poor fit]
CCC1(c2ccccc2)NC(=O)N(CC(=O)NNC(=O)CCN2CCN(c3ccccc3)CC2)C1=O (stereo unspecified) | – | inconclusive: 10.4 µM [inhibitor, single point]
CCSc1nc(C)c(C(C)=O)cc1C#N | inactive: -32.3% | –
Oc1ccc(Br)cc1C=Nc1ccc2[nH]ncc2c1 | – | inconclusive: 4.65 µM [inhibitor, partial curve]

Record cards (already shown). Values in the order: activity change, negative = inhibition | Potency
COc1cc(C(=O)NCCSc2ccccc2)cc(OC)c1OC is listed as – | active: 10.4 µM
Oc1ccc(Br)cc1C=Nc1ccc2[nH]ncc2c1 is listed as – | inconclusive: 4.65 µM [inhibitor, partial curve]

Later entries.

SMILES | activity change, negative = inhibition | Potency
CCn1cc(C(=O)O)c(=O)c2cc(F)c(N3CCN(C(=S)NC(=O)c4cccc(F)c4)CC3)cc21 | – | inconclusive: 10.4 µM [inhibitor, single point]
C=CCN1C(=O)/C(=C\c2cc(Br)c(OCc3ccccn3)c(OC)c2)SC1=S | – | inconclusive: 0.0033 µM [inhibitor, full curve, poor fit]
CN1C(=O)C(=Cc2ccc(N(C)C)c([N+](=O)[O-])c2)C(=O)N(C)C1=O | – | inconclusive: 0.0037 µM [inhibitor, full curve, poor fit]
COc1ccc(C(=O)NC2CCCCCC2)cc1S(=O)(=O)N1CCCC1 | – | inconclusive: 5.86 µM [inhibitor, partial curve]
O=C(CSc1nc2[nH]c(=O)cc(O)c2s1)NCCc1ccccc1 | – | inconclusive: 1.17 µM [inhibitor, partial curve, poor fit]
COc1ccc(/C=C2/SC(=S)NC2=O)cc1OCc1ccccc1 | – | inconclusive: 18.5 µM [inhibitor, single point]
CN(C)CCNC(=O)c1cc2ccccc2oc1=O | – | inconclusive: 18.5 µM [inhibitor, single point]
O=C(O)C1CCC(CN(Cc2cccc(Br)c2)C(=S)Nc2ccccc2F)CC1 (stereo unspecified) | – | inconclusive: 9.28 µM [inhibitor, single point]
Cc1cccc(OCC2CCCN(Cc3nc(C4CC4)no3)C2)c1 (stereo unspecified) | – | inconclusive: 18.5 µM [inhibitor, single point]
Cc1ccc(CNC(=O)c2ccccc2-n2cnnn2)cc1 | inactive: 0.696% | –
Cc1ccc(SCC(=O)OC(C)C(=O)NCc2ccccc2)cc1 (stereo unspecified) | – | inconclusive: 4.15 µM [inhibitor, single point]
Nn1c(SC/C=C/c2ccccc2)nnc1-c1ccccn1 | – | inconclusive: 14.7 µM [inhibitor, partial curve]
Cc1ccc2c(c1)cc(CN(Cc1ccc3c(c1)OCO3)S(=O)(=O)c1ccccc1)c1nnnn12 | – | inconclusive: 18.5 µM [inhibitor, single point]
CCOC(=O)C1(Cc2ccc(OC)cc2)CCN(C(=O)c2cncs2)CC1 | – | inconclusive: 8.28 µM [inhibitor, partial curve, poor fit]
O=C(c1ccccc1)c1ccccc1NC(=O)C1CCCN1Cc1ccccc1 (stereo unspecified) | – | inconclusive: 9.28 µM [inhibitor, single point]
CCNc1nnc(CCn2nc(C)c(Br)c2C)s1 | inactive: -1.08% | –
CN1CCN(C(=O)C2=C[C@@H](C3CCCCC3)C[C@@H](OCCCCO)O2)CC1 | inactive: 18.5% | –
Cc1ccc(N(CCO)C(=S)Nc2ccccc2)cc1 | – | inconclusive: 0.104 µM [inhibitor, full curve]
COc1cccc(Nc2nc(CN3CCOCC3)nc3sc4c(c23)CCCC4)c1 | – | inconclusive: 18.5 µM [inhibitor, single point]
CCOC(=O)N1CCC(NC(=O)CCc2nc(C3=CCN(C)CC3)no2)CC1 | – | inconclusive: 18.5 µM [inhibitor, single point]
CC1=C(C(=O)OCC(C)C)C(c2cccc(F)c2)N2C(=O)C(C)SC2=N1 (stereo unspecified) | – | active: 11.7 µM
CCCC(=O)Oc1ccc(N(C(=O)CCC)S(=O)(=O)c2cccc([N+](=O)[O-])c2)cc1 | – | active: 4.65 µM
CCn1c(=O)cc(SCC(=O)NCCCN2CCN(c3ccccc3F)CC2)c2ccccc21 | – | inconclusive: 10.4 µM [inhibitor, partial curve]

For reference, part of the list above:
SMILES | activity change, negative = inhibition | Potency
COc1ccc(C2N3CC4(C)CN2CC(C)(C3)C4O)cc1 (stereo unspecified) | – | inconclusive: 9.28 µM [inhibitor, partial curve, poor fit]
Cc1cc(C)n(C(=O)c2cc3ccccc3c(=O)o2)n1 | inactive: -23.5% | –

Source: PubChem BioAssay AID504834 (National Center for Advancing Translational Sciences (NCATS), 2011)
